Assay results from PubChem BioAssay AID1508600 (Functional Genomics Laboratory (NCATS/FGL), 2020).
The campaign covered roughly 53,000 sequences. About 3,700 (7%) were called active.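 How the source made its calls: active means gene knockdowns whose robust z-score for IL-1 alpha signal is at least 2 or at most -2, so actives lie on both sides; inactive means the rest.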 The list shows a part of the results.

Test: Components of the Cytosolic LPS Sensing Pathway: Gene Identification via Genome-wide siRNA Screen;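 further: robust z of the log signal after scaling to non-targeting control siRNA wells of the plate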
Settings: RAW264.7 macrophages, IL-1a HTRF, actives lie on both sides, screened at 100 nM (by protocol), cells primed 5 h with Pam3CSK4 first
Procedure, shortened: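 Cells (RAW264.7, 1×10^4 per well) were transfected with siRNA at 100 nM and cultured 48h at 37 degrees C. Pam3CSK4 was added for 5 hours; LipidA transfection followed for 24 hour. IL-1a was then measured by HTRF.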

z-score, active:
GCUCCAUGAAUGUCCAACATT against Sphkap -2.41
GGCUCAGAUACUCUUAUAATT against Aknad1 -3.24
GCCUGACAAUAGUCAUUUCTT against Olfr985 -2.03
GGCUCCAAGUCUACACAACTT against Dnajc6 2.82
CCACACCAUAACAACAUUCTT against Olfr800 -2.05

z-score, inactive:
GCCUGGUAUGAGGAUCUGCTT against Ddit3 -0.11
GGUAGUAUCUGGCAUAAAATT against Fhl4 1.83
GGAAAGAUAGAAGACAAACTT against Spry4 -0.0777
CCAUGGUUCUCAUUAGUAATT against Adk -1.29
GCGGUAGGGAUGAAAUAGUTT against Ccnd1 1.06
GCUAAUUGAGACCUAUUUCTT against Plp1 -1.5
GGACUUGUUAGCGCAUCUCTT against Psmb9 -0.609
GCCAAUGCUUCCAUUACCATT against Abca17 0.141
GUGCAUCUACAACAUCGGCTT against Plp2 0.913
CGGACCCGAGUUCGAGAAATT against Cherp 0.0302
GCAGCAUCCAAUAAAGGGATT against Car1 0.267
GCAGCGAUAUGACAGACUCTT against Csrnp1 -0.136
GGCUGUGGACUUUUGUAAUTT against Rmc1 0.00337
ACUCAGUCAUUAAAGAGUGTT against G430095P16Rik 0.447
GGAACUCUAUGCCAAUACCTT against Fhl2 0.472
GGCUUCAAAAACGACUAAATT against Cep83 -0.212
GGAUAUGUUGAAAGACAGCTT against Ccdc158 0.296
GGGUCAUGAAACCUACCUUTT against Hikeshi 0.182
GCCCUGCUGUUGUCAGUCUTT against Krtap5-1 -0.499
GCAAGUCAAGCUAGAAAAATT against Slc16a1 -0.46
GGAAAAAGCCAAGCUCAUCTT against Syt3 -1.5
GGACAACAAGAUCAGGACCTT against Akap4 0.535
GGGACAGCAGUUCAUUCUATT against Cryba2 0.954
GGAACAUCAUCAACCACUATT against Olfr911-ps1 -1.53
CGUUCAUGUAUUUGAUGUATT against Asb4 -0.789
CCUUACUGGGUUAGAGAUGTT against Sdf2 -0.735
GAGAGAAUCCGUCAACGGATT against 4833420G17Rik 0.667
GGGUGUUCAUACAAGCCGUTT against Zp1 -0.164
CCUGAUCUUGCACUCGAUGTT against Tbx6 0.422
GGACACUUAAAGAUCCUGCTT against Armc7 -0.545
GGUCACAGUUGUUUGAAGUTT against Bst2 -1.18
GCAGAGGUCUCUAAGCCAUTT against Lad1 -1.07
GGUUCAAAGUUCUAGCUAATT against Adss -0.25
GCAUGUCAGACUGGUGCAATT against Rexo2 0.23
CCUCACUCUAUAAUAAAGATT against Fsd1 -0.131
CCUCAAUUUAGGCACUAAUTT against Urgcp -1.71
CCGAGUGAUGACCUACCGUTT against Ift43 -0.104
UCUAUCUCAUUACUAUUGUTT against Olfr190 0.649
GGUUUUAAAGCACUUUGUATT against Jazf1 0.288
GGAGAGUAUUCCAAGGUCCTT against Mrpl14 0.694
GGAUCUUGACUUUGAUAUGTT against Trpm4 0.0632
GCUGAAGAGAUAUGAGUUCTT against Dpp3 1.43
GGUAGACUUAUGUAGAUUCTT against Mrs2 -0.933
GGUCCUAGGUGCUAUAAUGTT against Matn4 1.12
GCGACAUUGCCCUUCUCUGTT against Prss45 -0.153
GGGUCCAUUCUGAGAACAATT against Cdk14 -0.432
GGAUUUAAUAGCCAUCGGUTT against Slc26a8 0.266
CCCUUCUCUCGGAAUAAUATT against Gng12 0.786
GGAAGAAAAUUCCAAUUUGTT against Rnf24 -0.134
GCGUGUACUAAGUUCUUUGTT against Olfr549 0.972
GGCUGGAUUCUUGAACCUGTT against Zfp128 -0.299
GUCUAUACACCAAAGAUCUTT against Olfr1014 1.21
GGAGACAGUAAUAGCUCAUTT against Trp53bp1 -0.527
GGCAUUUAGUGACAACCCATT against Cxcl13 -1.13
GCUAUACUUUUGGGUUAUCTT against Mynn 0.933
GGAUACCAGACCUCAAGUGTT against P2rx1 -0.45
GGAAGCAUUGAAGAUAAGATT against Topbp1 -0.273
GGGACUGAACUCCUGUUGGTT against Tspan10 -0.262
CCGAUUCCUUAGUCAUCGUTT against Pdgfra -0.787
GGUUCAUAGUCUGUUAUGATT against Clpb -1.34
GGACAUUUUCCGUAGAUUUTT against Rbm25 -0.724
GCGCAACAUCUAUAAACGGTT against Mtmr4 0.55
CCUCCUUAGACUCAAAUCCTT against Nfe2l2 1.38
